Results from patent publication US20250275924A1, “Anticholinergic Agents and Muscarinic Agonists for the Treatment of Demodex Related Conditions” (ATTILLAPS HOLDINGS INC., priority 2022, published 2025).

Tested on: Demodex mites
Test: in vitro assay of Demodex mite paralysis and/or killing (survival time)
Conditions: grouping of active agents in the summary; data in FIG. 1A-1E (not reproduced)
Experimental: FIG. 1A-1E is a table summary of an in vitro assay of various agents on Demodex mites survival time and paralysis.
FIG. 1A-1E is a summary of various agents tested in an in vitro assay of Demodex mite paralysis and/or killing. The efficacy of various agents are evaluated in Demodex characterization and/or survival time experiments, including in terms of LT50 (time at which 50% of Demodex mites are killed) and/or associated time (in hours: min or total minutes). Certain active agents achieve LT50 of 12 hours or less.
In an embodiment, the active agent is characterized as having a LT50 of less than 12 hours, including as confirmed in an in-vitro Demodex assay, including as summarized in FIG. 1A-1E. In an embodiment, the active agent is characterized as having a paralytic activity, including as confirmed in an in-vitro Demodex assay, including as summarized in FIG. 1A-1E.

With `CCN(CC)CCOC(=O)C1(C2CCCCC2)CCCCC1` [dicyclomine] the “kills Demodex mites” value was “kill Demodex mites”.
